These are yes or no findings as the source states them, for the method shown. Some results given as binding are weak or reduced against the parent protein; the word gives no strength.
How the values were obtained:
human VEGFA (human) [1] = target: human VEGFA (human) (UniProt P15692); assay: ELISA, antibody coated at 1 ug/mL, biotinylated ligand at 1 ug/mL, SA-HRP (FIG. 8)
human VEGFA (human) [2] = target: human VEGFA (human) (UniProt P15692); assay: ELISA, antibody coated at 1 ug/mL, biotinylated ligand at 1 ug/mL, SA-HRP (FIG. 9)
mouse VEGFA (mouse) [3] = target: T1, mouse VEGFA (mouse) (UniProt Q00731); assay: as above
T1 sequence (biotinylated (sites not stated), looked up): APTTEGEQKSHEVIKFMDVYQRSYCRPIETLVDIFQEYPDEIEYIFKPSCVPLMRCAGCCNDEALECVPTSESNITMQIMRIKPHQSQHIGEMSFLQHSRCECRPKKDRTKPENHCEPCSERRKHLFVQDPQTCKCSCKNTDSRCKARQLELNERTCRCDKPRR

The chains behind the UniProt entries cited, without tags or fusion partners. Where a name states a change or a piece, a line headed by the entry shows the natural chain unless it says otherwise. A line that says so, or that is headed by a name, gives the form on record, which may keep a tag or linker.
human VEGFA (P15692, form named): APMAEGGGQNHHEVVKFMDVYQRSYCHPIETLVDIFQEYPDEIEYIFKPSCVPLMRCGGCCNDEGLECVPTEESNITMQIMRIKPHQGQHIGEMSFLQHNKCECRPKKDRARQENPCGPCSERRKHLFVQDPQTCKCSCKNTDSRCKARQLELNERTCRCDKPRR

human VEGFA (human) [4] = target: human VEGFA (human) (UniProt P15692); assay: ELISA (FIG. 8 legend)
human VEGFA (human) [5] = target: human VEGFA (human) (UniProt P15692); assay: ELISA (FIG. 9 legend)
mouse VEGFA (mouse) [6] = target: T1, mouse VEGFA (mouse); assay: ELISA (FIG. 9 legend)

Measured: binding

B1: hu bi-Nb24(Y) (VHH)
chain: EVQLQESGGGLVQPGGSLRLSCTASGFTFDDPDVGWFRQAPGNECELVSTISKDGSTYYTDSVKGRFTISRDYAKNTVYLQMNSLRAEDTAVYYCAADSNPIAPIRTCLGWYNYWGQGTLVTVSSGGGGSGGGSEVQLQESGGGLVQPGGSLRLSCTASGFTFDDPDVGWFRQAPGNECELVSTISKDGSTYYTDSVKGRFTISRDYAKNTVYLQMNSLRAEDTAVYYCAADSNPIAPIRTCLGWYNYWGQGTLVTVSS
binds: human VEGFA (human) [1] | human VEGFA (human) [2] | mouse VEGFA (mouse) [3] | human VEGFA (human) [4] | human VEGFA (human) [5] | mouse VEGFA (mouse) [6]

— US20220324954A1
